Test results as given in the supplement of paper PMC5949888.
Most values lie at the floor of the assay. Slopes are relative: functional sequences can read slightly below zero.

These substances were tested on Saccharomyces cerevisiae PS128 hsf1 delta, HSF1(1-493) fusion (assay: growth estimate (transactivation domain function in HSF1 fusion, heat-shock survival) (a.u. (slope of normalised read count over time)); higher = stronger growth at 37°C, i.e. more transactivation activity). Details: library: random library.
TVICAPDRRRNAGCVAAG showed a growth estimate of less than -0.25.
TVIPK was tested, and the growth estimate was less than -0.25.
TVITIAHR showed a growth estimate of less than -0.25.
Substance TVIYTKHPVRLPQDSGGPES has a growth estimate of less than -0.25.
TVKS gave a growth estimate of less than -0.25.
Substance TVLATRNWKVTRSRLQQNRH has a growth estimate of less than -0.25.
Work on TVLHDLSISSLAASSR yielded a growth estimate of less than -0.25.
TVLHGAVFLKLHSRSAINFW showed a growth estimate of less than -0.25.
TVLIRRIWMQLTIQMFVGPV was tested, and the growth estimate was -0.189.
TVLRVSHHLGCTAL showed a growth estimate of less than -0.25.
In the case of TVLVLRYGRNRPAPVIGTPV, the growth estimate was less than -0.25.
In the case of TVMAATPVIC, the growth estimate was less than -0.25.
In the case of TVNAEKDTKQSLGDVALSIK, the growth estimate was -0.246.
TVNNLCLLPVRGT showed a growth estimate of less than -0.25.
Work on TVNYMRIFERR yielded a growth estimate of less than -0.25.
TVPIGSWPKEAMNPSFKSFS was tested, and the growth estimate was less than -0.25.
Substance TVQLCAASTYGQWCAKLYKE has a growth estimate of less than -0.25.
Substance TVREVNRIPLEFVRLYRPVS has a growth estimate of less than -0.25.
For TVRGLQAQKRQYAMLNICTG, the growth estimate was less than -0.25.
TVRIKHATSLRHYPSYVYKY showed a growth estimate of less than -0.25.
TVRPSY was tested, and the growth estimate was -0.246.
TVRSICNSARSTCRWKKE showed a growth estimate of less than -0.25.
With TVSCGSGEYNRLEGEGTWFW the growth estimate was less than -0.25.
Substance TVSHS has a growth estimate of less than -0.25.
Work on TVSPLWAVGHPMGHGLLLPY yielded a growth estimate of less than -0.25.
Substance TVSRPDGGRGSPCLTGYMSV has a growth estimate of less than -0.25.
Substance TVSSAVAPLTLILPTVGQAQ has a growth estimate of less than -0.25.
For TVSSSEEIGLT, the growth estimate was less than -0.25.
Substance TVTGIPSS has a growth estimate of less than -0.25.
TVTIITERRSSLLVVRRPRR gave a growth estimate of less than -0.25.
For TVTLPTWLKIEYG, the growth estimate was less than -0.25.
TVTLSR showed a growth estimate of less than -0.25.
TVVQRVRGQIKNSRPATQFL was tested, and the growth estimate was less than -0.25.
In the case of TVWEATYALD, the growth estimate was less than -0.25.
TVYWEAVLLDCIPWWRPTFC showed a growth estimate of less than -0.25.
Work on TWADACGAG yielded a growth estimate of less than -0.25.
Substance TWAFPRAGAKSAPWRPGPWE has a growth estimate of less than -0.25.
With TWFEGS the growth estimate was less than -0.25.
Work on TWGCSITLTEWILF yielded a growth estimate of less than -0.25.
TWGVPVNRRRSAFSRLATTI showed a growth estimate of less than -0.25.
Work on TWLLVSARGEHLTEVEDLEC yielded a growth estimate of less than -0.25.
TWLSMSQPTVARIIWKDAMS gave a growth estimate of less than -0.25.
In the case of TWNVGHVGFCVCDRCRPICD, the growth estimate was less than -0.25.
TWRLAPRWLSGCQISLPILA showed a growth estimate of less than -0.25.
In the case of TWRLLNKV, the growth estimate was less than -0.25.
With TWSCFLLLCGLGDVSMTTHP the growth estimate was less than -0.25.
In the case of TWSILPQCRETRCLPLRATR, the growth estimate was less than -0.25.
Substance TWSLPTGVWSLGYDYVSGTW has a growth estimate of less than -0.25.
In the case of TWTLLDGC, the growth estimate was -0.233.
TWYRASN was tested, and the growth estimate was less than -0.25.
Work on TYAHSDGYFCVIRNEVLRVV yielded a growth estimate of less than -0.25.
Substance TYASDNRVR has a growth estimate of less than -0.25.
TYEMIRTNIFCIGARRLIHT was tested, and the growth estimate was less than -0.25.
TYGGRFSRQQGRDVNGCQDH was tested, and the growth estimate was less than -0.25.
With TYLC the growth estimate was less than -0.25.
Work on TYLVVLVQV yielded a growth estimate of less than -0.25.
Substance TYNDVMR has a growth estimate of less than -0.25.
TYR showed a growth estimate of less than -0.25.
Substance TYRISVQKR has a growth estimate of -0.248.
For TYSAPQHGYHVKYGYQRRCR, the growth estimate was less than -0.25.
TYSLLFASLSVPYLRGTKGR showed a growth estimate of less than -0.25.
For TYVLSCDHRS, the growth estimate was less than -0.25.
TYYTII was tested, and the growth estimate was less than -0.25.
With VAAAFYGGFPIGTEACTGVG the growth estimate was less than -0.25.
VAAEPRSVHHSNVCLKMM gave a growth estimate of less than -0.25.
For VACISMLGAGRRLSPDRLWT, the growth estimate was less than -0.25.
VAFRPTHTDRSVCKHRG was tested, and the growth estimate was less than -0.25.
With VAGCGRDIQRVDSLLSSCRS the growth estimate was less than -0.25.
VAGGQSGYEYITPACRIVQI was tested, and the growth estimate was less than -0.25.
Substance VAGPSPQKLGSE has a growth estimate of -0.231.
For VAGTSKLL, the growth estimate was less than -0.25.
VAHSSLVNF showed a growth estimate of less than -0.25.
VAINLVWPDVSVNGQMFYEA gave a growth estimate of -0.173.
VAISVPLQLSCIE showed a growth estimate of less than -0.25.
With VAKFNGCDTVCQRHTEQSVP the growth estimate was less than -0.25.
For VAKPERPHCLEY, the growth estimate was less than -0.25.
For VALGWVRIPTGFRARLDMVK, the growth estimate was less than -0.25.
Work on VALLTIWDWVGGLSGGYNHA yielded a growth estimate of less than -0.25.
With VALTERYWAAPRCLPVPFLL the growth estimate was less than -0.25.
VAMARGPSSSKGSSSYSERN gave a growth estimate of -0.25.
VAPLQRTQAHQQRQDCWTGR was tested, and the growth estimate was less than -0.25.
VAPPGGVGSLLTGASKGTSG gave a growth estimate of less than -0.25.
VARVICSGEQFRV gave a growth estimate of less than -0.25.
VASLPVRRLVLSSRRIANFV was tested, and the growth estimate was less than -0.25.
For VASTWSWIHENTVPSPSTVS, the growth estimate was less than -0.25.
For VATGLGGRSQVWREPLITGK, the growth estimate was less than -0.25.
VATHMCPERPAPDVHVCVRR gave a growth estimate of less than -0.25.
VATLRSRGIGGCWKLRL was tested, and the growth estimate was less than -0.25.
VATLSGTRTSNLGGTSSLAR gave a growth estimate of less than -0.25.
VATRGLQDSTGNCDSFSGS gave a growth estimate of less than -0.25.
For VATRGSPCRGRQRADTTIGS, the growth estimate was less than -0.25.
VATTLCVSRFDYSLGSGNVT showed a growth estimate of less than -0.25.
VAVAASSMVK was tested, and the growth estimate was less than -0.25.
With VAVAPEFYAGSRSLGPARCK the growth estimate was less than -0.25.
VAVASCVRKGWF was tested, and the growth estimate was less than -0.25.
VAVRKLPWAQHRTLRRLSVR showed a growth estimate of less than -0.25.
With VAWV the growth estimate was less than -0.25.
Substance VAYPM has a growth estimate of less than -0.25.
VCCGSIDLLKKSPL was tested, and the growth estimate was less than -0.25.
In the case of VCDLSGLMRS, the growth estimate was less than -0.25.
In the case of VCDSLDSLDVLCKLIECNTY, the growth estimate was -0.246.
Work on VCESATEVEN yielded a growth estimate of less than -0.25.
VCGAAFIEVISNLDVARCPG gave a growth estimate of less than -0.25.
VCGFPLS showed a growth estimate of less than -0.25.
Work on VCHEA yielded a growth estimate of less than -0.25.
With VCHLDGCLVLNQVPRVDSKP the growth estimate was less than -0.25.
VCHTKHNL showed a growth estimate of less than -0.25.
VCIG gave a growth estimate of less than -0.25.
Work on VCIHS yielded a growth estimate of less than -0.25.
Work on VCILRCGGPTSYSF yielded a growth estimate of less than -0.25.
With VCKAPNKCYG the growth estimate was less than -0.25.
For VCLGRYQCVSLAVSPISGCE, the growth estimate was -0.245.
VCLLRKPSVQVKSAMGTDPS was tested, and the growth estimate was less than -0.25.
VCLPEKVYMLR gave a growth estimate of less than -0.25.
Substance VCLPKRATEANS has a growth estimate of less than -0.25.
For VCMRNHVVLGARRSKVA, the growth estimate was less than -0.25.
For VCNMALNGGATN, the growth estimate was less than -0.25.
In the case of VCPFVLPESEELG, the growth estimate was less than -0.25.
VCPGNIKPQSARDP was tested, and the growth estimate was less than -0.25.
Work on VCQR yielded a growth estimate of less than -0.25.
Substance VCRTRRTWV has a growth estimate of less than -0.25.
In the case of VCRYLSFWGRSIPTREL, the growth estimate was less than -0.25.
Work on VCSENGWAVFSQRHLGTSSV yielded a growth estimate of less than -0.25.
Substance VCSLGVKRLR has a growth estimate of less than -0.25.
Work on VCSSYPGWTLSSERSDDPVV yielded a growth estimate of less than -0.25.
For VCTFINQCNLQMTVRRKKTT, the growth estimate was less than -0.25.
With VCTIGLSRKWELRIRECQPC the growth estimate was less than -0.25.
VCTSLF was tested, and the growth estimate was less than -0.25.
VCTV showed a growth estimate of less than -0.25.
Work on VCVDYVRSTQKG yielded a growth estimate of less than -0.25.
Work on VCVRRAPQQVMRNSEGSRSR yielded a growth estimate of less than -0.25.
Work on VCWIHDD yielded a growth estimate of less than -0.25.
VCYGRRTFLLDGGGAAEVQT was tested, and the growth estimate was -0.231.
In the case of VCYRVVSDFTWCSCGAETYM, the growth estimate was less than -0.25.
In the case of VDAGIMALTGSGAMPS, the growth estimate was less than -0.25.
VDASQWGVIA gave a growth estimate of less than -0.25.
VDGHSVARDNYSVRRGQV gave a growth estimate of less than -0.25.
VDGSLV was tested, and the growth estimate was less than -0.25.
VDGWRAWTLEAGWDWIGQDH gave a growth estimate of 1.37.
For VDKDNKW, the growth estimate was less than -0.25.
VDLG gave a growth estimate of less than -0.25.
VDLLGPEAPHTSDFDQRLAT showed a growth estimate of less than -0.25.
Work on VDLRRVA yielded a growth estimate of less than -0.25.
With VDPSI the growth estimate was less than -0.25.
